Measurements reported in article PMC8520724.
These are yes or no findings as the source states them, for the method shown. Binding seen in cells or lysates may run through a third protein. Some entries that bind do so weakly or less than the wild type.

Protein sequences, listed by entry. Tags and fused reporters are not part of them.
UniProt Q96EB6: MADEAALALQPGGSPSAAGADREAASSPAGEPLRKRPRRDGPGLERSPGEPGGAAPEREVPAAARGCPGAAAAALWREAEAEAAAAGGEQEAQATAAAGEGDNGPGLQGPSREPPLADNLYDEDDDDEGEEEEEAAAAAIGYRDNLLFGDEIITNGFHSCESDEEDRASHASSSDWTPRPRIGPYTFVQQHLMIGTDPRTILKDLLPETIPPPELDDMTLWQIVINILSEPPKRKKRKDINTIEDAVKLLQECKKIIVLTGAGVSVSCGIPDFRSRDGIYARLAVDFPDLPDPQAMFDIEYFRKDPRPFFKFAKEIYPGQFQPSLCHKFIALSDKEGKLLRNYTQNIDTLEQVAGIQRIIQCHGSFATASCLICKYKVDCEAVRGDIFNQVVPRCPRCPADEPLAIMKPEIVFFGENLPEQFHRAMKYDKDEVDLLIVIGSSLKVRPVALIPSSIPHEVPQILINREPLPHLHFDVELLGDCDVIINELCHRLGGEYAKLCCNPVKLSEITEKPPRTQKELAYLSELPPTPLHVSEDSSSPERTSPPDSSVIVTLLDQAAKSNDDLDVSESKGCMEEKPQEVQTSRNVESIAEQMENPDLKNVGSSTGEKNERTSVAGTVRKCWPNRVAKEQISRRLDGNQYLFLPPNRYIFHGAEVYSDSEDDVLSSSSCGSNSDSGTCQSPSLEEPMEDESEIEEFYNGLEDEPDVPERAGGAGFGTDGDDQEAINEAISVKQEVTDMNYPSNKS
UniProt P08670: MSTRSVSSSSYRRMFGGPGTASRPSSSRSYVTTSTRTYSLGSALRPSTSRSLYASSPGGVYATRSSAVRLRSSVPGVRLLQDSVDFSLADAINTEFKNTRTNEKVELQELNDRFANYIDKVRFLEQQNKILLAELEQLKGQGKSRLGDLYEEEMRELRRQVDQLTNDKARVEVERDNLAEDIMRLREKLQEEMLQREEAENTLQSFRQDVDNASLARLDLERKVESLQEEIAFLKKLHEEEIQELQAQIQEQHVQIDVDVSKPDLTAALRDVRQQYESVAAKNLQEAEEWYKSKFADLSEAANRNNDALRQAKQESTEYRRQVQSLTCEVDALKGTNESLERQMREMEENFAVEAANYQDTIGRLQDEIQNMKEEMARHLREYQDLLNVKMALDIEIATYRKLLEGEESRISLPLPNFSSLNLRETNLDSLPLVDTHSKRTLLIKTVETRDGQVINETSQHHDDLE

Molecular target: SIRT1 (human (endogenous in HTR8/SVneo cells and human first-trimester villi)) (UniProt Q96EB6)
Assay: co-IP; reciprocal: anti-SIRT1 or anti-vimentin antibody on Protein A/G magnetic beads, 400 μg lysate of human first-trimester villi or of HTR8/SVneo cells in IP lysis buffer, 8 h; matched IgG isotype control; immunoblot

In the case of vimentin (from UniProt P08670 1-466), the binding was “binds”.
